Measured data: PubChem BioAssay AID1224826 (NIAID, 2016)
Here is an unselected part of about 17,000 reagents. Of all reagents, about 1,110 (6.6%) are marked active. 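Active means lowered or raised reporter signal; replicate intensities are raw and not normalised per plate.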 Not all columns of the deposit are shown. Reagent sequences are not shown.

Screen: 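Genes that change LPS-induced Tnf promoter activity in mouse macrophages when knocked down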 (primary screen)
System: RAW264.7 G9 macrophages from mouse bearing reporters for p65 (GFP) and the Tnf promoter (mCherry)
Reagent: siRNA pool against mouse genes, 100 nM
Timing: 16 h of LPS stimulation, after 2 days of siRNA transfection
Treatment: bacterial lipopolysaccharide (Salmonella minnesota R595), 10 ng/ml
Read-out: 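Imaged Tnf reporter mCherry in nuclei, minus background, normalised per plate to the median and expressed as robust z-scores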
Scale: Tnf reporter robust z-score: higher = stronger Tnf promoter reporter signal after LPS
Active means: 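a well counts as active at a score of -1.3 or below (Tlr4 knock-down control median) or above 3 (raised signal); controls and wells holding fewer than 50 cells are excluded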
Calls: active = Tnf reporter clearly lowered or raised; inactive = no clear change in Tnf reporter

After knock-down of Alpk2 (alpha-kinase 2) the results were Tnf reporter robust z-score 0.61; fewer than 50 cells in well enough cells in well; inactive. Depletion of Slc5a4a came out at: fewer than 50 cells in well fewer than 50 cells per well; well left out of calls; inactive. Knock-down of Kcnj1 (potassium inwardly-rectifying channel, subfamily J, member 1) came out at: Tnf reporter robust z-score 2.55; fewer than 50 cells in well enough cells in well; inactive. Knock-down of Mtres1 (mitochondrial transcription rescue factor 1) resulted in: fewer than 50 cells in well fewer than 50 cells per well; well left out of calls; inactive. Depletion of 1700129L13RIK resulted in: Tnf reporter robust z-score -1.41; fewer than 50 cells in well enough cells in well; active. Silencing of Oog2 (oogenesin 2) came out at: Tnf reporter robust z-score -0.88; fewer than 50 cells in well enough cells in well; inactive.

Against Nt5dc1 (5'-nucleotidase domain containing 1), the entry reads Tnf reporter robust z-score 0.04; fewer than 50 cells in well enough cells in well; inactive. Gpc4 (glypican 4) gave Tnf reporter robust z-score -0.35; fewer than 50 cells in well enough cells in well; inactive. After knock-down of Zfp85 (zinc finger protein 85), the record shows Tnf reporter robust z-score -1.58; fewer than 50 cells in well enough cells in well; active. Against Col14a1 (collagen, type XIV, alpha 1), the entry reads Tnf reporter robust z-score 0.71; fewer than 50 cells in well enough cells in well; inactive. Silencing of Plcg2 (phospholipase C, gamma 2) came out at: Tnf reporter robust z-score -0.87; fewer than 50 cells in well enough cells in well; inactive. For Fam110c (family with sequence similarity 110, member C), the entry reads fewer than 50 cells in well fewer than 50 cells per well; well left out of calls; inactive.

With knock-down of Acsf2 (acyl-CoA synthetase family member 2), the screen gave Tnf reporter robust z-score 0.08; fewer than 50 cells in well enough cells in well; inactive. Against Cox7a1 (cytochrome c oxidase subunit 7A1) the deposit lists Tnf reporter robust z-score -0.91; fewer than 50 cells in well enough cells in well; inactive.

Not a retest: 2 of the entries above.
Mtres1 (mitochondrial transcription rescue factor 1) — fewer than 50 cells in well = fewer than 50 cells per well; well left out of calls; call = inactive
1700129L13RIK — Tnf reporter robust z-score = -1.41; fewer than 50 cells in well = enough cells in well; call = active
